Results on one molecule are retold here after patent publication US20230365648A1.

Protein sequences, listed by entry. Tags and fused reporters are not part of them. Residues count along the entry.
UniProt Q08722, residues 19-323: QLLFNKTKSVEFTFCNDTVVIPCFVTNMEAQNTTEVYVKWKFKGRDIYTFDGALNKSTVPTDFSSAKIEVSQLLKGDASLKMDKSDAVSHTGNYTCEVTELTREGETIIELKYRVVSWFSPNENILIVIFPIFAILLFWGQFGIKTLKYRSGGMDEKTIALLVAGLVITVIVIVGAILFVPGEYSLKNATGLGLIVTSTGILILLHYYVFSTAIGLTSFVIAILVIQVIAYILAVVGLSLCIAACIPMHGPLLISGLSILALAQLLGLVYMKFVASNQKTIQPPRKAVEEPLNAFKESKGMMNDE

Results are given in words; binding and its absence hold for the method and conditions named. Some binding calls cover weakened binding; strength is not graded here. Sequences can lack the tags named with a protein.

For assay [1], the target named is Cyno monkey CD47 (Cyno monkey). Nature of the assay: BLI (Octet R8), construct captured on anti-human Fc sensor, CD47 in solution.
Assay [2] concerns the target CD47 on human CD45 negative red blood cells (human) (UniProt Q08722). The assay is described as follows: flow cytometry on human whole blood, CD45 negative gate (red blood cells), detection with AF647 anti-human IgG4.

B1: Construct 67 (SIRPα fusion polypeptide of SEQ ID NO: 10, SIRPα domain of SEQ ID NO: 2 and IgG4 Fc domain with a YTE mutation) (Fc fusion)
chain: EEELQIIQPDKSVLVAAGETATLRCTITSLFPVGPIQWFRGAGPGRVLIYNQRQGPFPRVTTVSDTTKRNNMDFSIRIGNITPADAGTYYCIKFRKGSPDDVEFKSGAGTELSVRAKPSAAAPPCPPCPAPEFLGGPSVFLFPPKPKDTLYITREPEVTCVVVDVSQEDPEVQFNWYVDGVEVHNAKTKPREEQFNSTYRVVSVLTVLHQDWLNGKEYKCKVSNKGLPSSIEKTISKAKGQPREPQVYTLPPSQEEMTKNQVSLTCLVKGFYPSDIAVEWESNGQPENNYKTTPPVLDSDGSFFLYSRLTVDKSRWQEGNVFSCSVMHEALHNHYTQKSLSLSLGK
On to B1, for which the binding entry in assay [1] and in assay [2] was “binds” throughout.
